Data as given in PubChem BioAssay AID1259308 (NCATS, 2017)
Assay: 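Knock-downs that increase output of a recombinant reporter protein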 (primary screen). System: human HEK293 embryonic kidney cells stably expressing firefly luciferase (HEK-CMV-Luc2-Hygro). Reagent: single siRNA against human genes, 0.8 pmol siRNA per well. Timing: 72 h. Measurement: 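Luciferase light (ONE-Glo) measured on one replicate plate set and viability (CellTiter-Glo) on the other, scaled to a negative control siRNA, with robust z-scores and luciferase per cell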. Reading the numbers: total luciferase, z-score and total luciferase, % of control: higher = more reporter protein produced. Call rule: 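An siRNA counts as active if its total luciferase robust z-score exceeds 3; genes with two or more such siRNAs out of three were retested with fresh siRNAs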. Calls: active = raised luciferase; inactive = no rise.
Shown is a random part of about 59,000 deposited reagents. About 1,510 of all reagents (2.6%) count as active. 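Calls use total luciferase alone and ignore viability, so some active siRNAs may act by altering cell number.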 A number with no mark means an inactive call. The numbers tell different reagents against one gene apart. Further read-outs or replicates are left out here.

With OR4X2 (GeneID 119764) #1, what was measured?
total luciferase, z-score: -1.21; total luciferase, % of control: 57.8

For OR4X2 (GeneID 119764) #2, how do the results read?
total luciferase, z-score: 0.0455; total luciferase, % of control: 82.8

For OR4X2 (GeneID 119764) #3, what was measured?
total luciferase, z-score: 0.227; total luciferase, % of control: 86.4

For SS18L1 (GeneID 26039) #1, what was measured?
total luciferase, z-score: -0.679; total luciferase, % of control: 68.4

How did the screen score SS18L1 (GeneID 26039) #2?
total luciferase, z-score: -0.36; total luciferase, % of control: 74.7

What is on record for SS18L1 (GeneID 26039) #3?
total luciferase, z-score: 5.8 (active); total luciferase, % of control: 197

With FRMD6-AS1 (GeneID 145438) #1, how do the results read?
total luciferase, z-score: 0.518; total luciferase, % of control: 92.2

With FRMD6-AS1 (GeneID 145438) #2, what does the deposit list?
total luciferase, z-score: -0.553; total luciferase, % of control: 70.9

What did the screen give for FRMD6-AS1 (GeneID 145438) #3?
total luciferase, z-score: 0.52; total luciferase, % of control: 92.2

With TRIM56 (GeneID 81844) #1, what was measured?
total luciferase, z-score: 0.152; total luciferase, % of control: 84.9

What did the screen give for TRIM56 (GeneID 81844) #2?
total luciferase, z-score: -0.461; total luciferase, % of control: 72.7

For TRIM56 (GeneID 81844) #3, what was measured?
total luciferase, z-score: -1.35; total luciferase, % of control: 55.1

With PRAM1 (GeneID 84106) #1, what does the deposit list?
total luciferase, z-score: 0.211; total luciferase, % of control: 86.1

What did the screen give for PRAM1 (GeneID 84106) #2?
total luciferase, z-score: -1.04; total luciferase, % of control: 61.3

With PRAM1 (GeneID 84106) #3, how do the results read?
total luciferase, z-score: 0.0255; total luciferase, % of control: 82.4

Which result is listed for NUTM2G (GeneID 441457) #1?
total luciferase, z-score: 0.243; total luciferase, % of control: 86.7

What did the screen give for NUTM2G (GeneID 441457) #2?
total luciferase, z-score: 0.0697; total luciferase, % of control: 83.3

What is on record for NUTM2G (GeneID 441457) #3?
total luciferase, z-score: 3.63 (active); total luciferase, % of control: 154

How did the screen score PSMB10 (GeneID 5699) #1?
total luciferase, z-score: 0.201; total luciferase, % of control: 85.9

What is on record for PSMB10 (GeneID 5699) #2?
total luciferase, z-score: 0.623; total luciferase, % of control: 94.3

For PSMB10 (GeneID 5699) #3, how do the results read?
total luciferase, z-score: 0.0382; total luciferase, % of control: 82.6

How did the screen score FITM1 (GeneID 161247) #1?
total luciferase, z-score: -2.07; total luciferase, % of control: 40.8

For FITM1 (GeneID 161247) #2, how do the results read?
total luciferase, z-score: 1.15; total luciferase, % of control: 105

What did the screen give for FITM1 (GeneID 161247) #3?
total luciferase, z-score: -0.783; total luciferase, % of control: 66.3

With HOXB5 (GeneID 3215) #1, how do the results read?
total luciferase, z-score: 0.0879; total luciferase, % of control: 83.6

What did the screen give for HOXB5 (GeneID 3215) #2?
total luciferase, z-score: 0.355; total luciferase, % of control: 88.9

How did the screen score HOXB5 (GeneID 3215) #3?
total luciferase, z-score: 0.903; total luciferase, % of control: 99.9

For TNPO1 (GeneID 3842) #1, how do the results read?
total luciferase, z-score: 1.51; total luciferase, % of control: 112

For TNPO1 (GeneID 3842) #2, what does the deposit list?
total luciferase, z-score: -0.71; total luciferase, % of control: 67.8

With TNPO1 (GeneID 3842) #3, what was measured?
total luciferase, z-score: -0.269; total luciferase, % of control: 76.5

For TNFSF14 (GeneID 8740) #1, how do the results read?
total luciferase, z-score: 0.419; total luciferase, % of control: 90.2

With TNFSF14 (GeneID 8740) #2, what was measured?
total luciferase, z-score: -0.129; total luciferase, % of control: 79.3

How did the screen score TNFSF14 (GeneID 8740) #3?
total luciferase, z-score: 1.67; total luciferase, % of control: 115

2 of these entries, reformatted:
SS18L1 (GeneID 26039) #1
- total luciferase, z-score: -0.679
- total luciferase, % of control: 68.4

SS18L1 (GeneID 26039) #2
- total luciferase, z-score: -0.36
- total luciferase, % of control: 74.7
